According to PMC6753678, “Fueling Open Innovation for Malaria Transmission-Blocking Drugs: Hundreds of Molecules Targeting Early Parasite Mosquito Stages” (Frontiers in Microbiology, 2019):
Read-outs that look alike come from different tables or passages of the source.

Tested on: P. berghei ookinete development
[1] = unified cytotox / IC50, <10-fold red, >10-fold green

Compound | Assay tox ratio Pb ODA | also measured
COc1cccc(CC(=O)N2CCC(n3c(C)nc4ccc(F)cc43)CC2)c1 [TCMDC-124792] | 125.96 | 
Cl.O=C(NC1CCN(CC2(c3ccc(Cl)cc3)CCCCC2)CC1)c1cc[nH]n1 [TCMDC-124828] |  | Assay tox ratio Pb ODA (red: <10-fold selectivity; green: >10-fold): 22.13
Cc1cc(C(=O)NC2CCN(CC3(c4ccccc4)CCCCC3)CC2)on1 [TCMDC-124832] | 22.01 | 
COc1coc(C(=O)NC2CCN(CC3(c4ccc(Cl)cc4)CCC3)CC2)c1OC [TCMDC-124835] | 58.39 | 
O=C(NC1CCN(CC2(c3ccccc3F)CCCC2)CC1)c1ccn[nH]1 [TCMDC-124837] |  | Assay tox ratio Pb ODA (red: <10-fold selectivity; green: >10-fold): 28.05
Cc1ccc(C2(CN3CCC(NC(=O)c4[nH]ncc4Cl)CC3)CCCCC2)cc1 [TCMDC-124838] |  | Assay tox ratio Pb ODA (red: <10-fold selectivity; green: >10-fold): 18.99
Cc1ccc(C2(CN3CCC(NC(=O)c4ccn[nH]4)CC3)CCCCC2)cc1 [TCMDC-124839] |  | Assay tox ratio Pb ODA (red: <10-fold selectivity; green: >10-fold): 44.59
COc1ccc(NS(=O)(=O)c2cc(NC(=O)Cn3ccccc3=O)ccc2N2CCCCC2)cc1 [TCMDC-124874] | 78.49 | 
CCc1c(C)nc(-n2nc(C)cc2NC(=O)C(CC)c2ccccc2)[nH]c1=O (stereo not drawn) [TCMDC-124935] |  | Assay tox ratio Pb ODA (red: <10-fold selectivity; green: >10-fold): 0.11
CCc1c(C)nc(-n2nc(C)cc2NC(=O)c2ccc(OC)cc2OC)[nH]c1=O [TCMDC-124937] |  | Assay tox ratio Pb ODA (red: <10-fold selectivity; green: >10-fold): 6.63
Cc1cc(=O)[nH]c(-n2nc(C)cc2NC(=O)C2(c3ccc(Cl)cc3)CCCC2)n1 [TCMDC-124943] |  | Assay tox ratio Pb ODA (red: <10-fold selectivity; green: >10-fold): 2.40
Cc1ccccc1-c1cc(=O)c2cc(NC(=O)c3cccs3)ccc2o1 [TCMDC-124947] | 24.09 | 
CCN(CC)c1nc(N)c2c(N)nc3c(c2c1C#N)C(=O)CN3Cc1ccccc1 [TCMDC-125024] | 161.75 | 
Cc1cc(C2NC(=O)c3ccccc3N2)c(C)n1-c1ccc2c(c1)OCO2 (stereo not drawn) [TCMDC-125051] | 4.06 | 
Cc1[nH]c2ccccc2c1C(=O)C(C)Sc1n[nH]c(-c2ccccc2Br)n1 (stereo not drawn) [TCMDC-125114] |  | Assay tox ratio Pb ODA [1]: 429.88
COc1cccc(NC(=O)[C@H](C(C)C)n2c(=O)[nH]c3ccccc3c2=O)c1 [TCMDC-125133] |  | Assay tox ratio Pb ODA [1]: 65.35
CCOC(=O)C1=C(C)NC2=C(C(=O)C(C(=O)OC)C(C)C2)C1c1cc(Br)c(OCC)c(OC)c1 (stereo not drawn) [TCMDC-125139] | 11.03 | 
COc1cc(Nc2ccc3cc(S(=O)(=O)N4CCCCC4C)ccc3n2)cc(OC)c1OC (stereo not drawn) [TCMDC-125163] | 23.19 | 
CCOc1cccc(C(=O)Nc2nonc2-c2ccc(OC)c(OC)c2)c1 [TCMDC-125179] | 0.89 | 
CCOc1ccc(-c2nonc2NC(=O)c2cccc(Cl)c2)cc1OCC [TCMDC-125200] |  | Assay tox ratio Pb ODA [1]: 3.13

Compound | Assay tox ratio Pb ODA | also measured
Cc1ccc(-n2c(Sc3ncnc4sccc34)nnc2N2CCCC2)cc1 [TCMDC-125247] |  | Assay tox ratio Pb ODA [1]: 368.36
Cc1[nH]c2ccccc2c1C(=O)C(C)Sc1nnc(-c2ccccc2F)o1 (stereo not drawn) [TCMDC-125312] | 22.30 | 
CN(C)c1ccc(C=CC(=O)NC(=O)c2ccccc2O)cc1 [TCMDC-125391] | 475.96 | 
O=C(c1ccco1)N1CCN(c2ccc([N+](=O)[O-])c(NC3CC3)c2)CC1 [TCMDC-125397] | 1.76 | 
O=C(Nc1nc(-c2ccccn2)cs1)c1ccc(S(=O)(=O)N2CCc3ccccc32)cc1 [TCMDC-125432] |  | Assay tox ratio Pb ODA [1]: 6.96
Cc1ccc(Cn2c(N3CCC(C(=O)NCc4ccccn4)CC3)nc3ccccc32)cc1 [TCMDC-125442] | 58.52 | 
COc1ccc(Cl)cc1NC(=O)CN(C)C(=O)c1cnn(-c2ccccc2)n1 [TCMDC-125457] | 19.57 | 
COc1ccc(C[C@H]2NC[C@H](O)[C@H]2OC(C)=O)cc1 [TCMDC-125504] |  | Assay tox ratio Pb ODA [1]: 5.78
CCN(CC)CCCNc1c2ccccc2nc2ccccc12.Cl [TCMDC-125517] |  | Assay tox ratio Pb ODA [1]: 11.27
Cc1c2ccncc2c(C)c2c1[nH]c1ccccc12 [TCMDC-125546] | 2.87 | 
Oc1c(C(Nc2nc3ccccc3s2)c2ccccc2)ccc2cccnc12 (stereo not drawn) [TCMDC-125565] |  | Assay tox ratio Pb ODA [1]: 0.59
CCCC(N)C(=O)NC1CCN(c2c(F)c(N)c3c(=O)c(C(=O)O)cn4c3c2Oc2ccccc2-4)C1.Cl (stereo not drawn) [TCMDC-125701] |  | Assay tox ratio Pb ODA [1]: 2.91
CCn1cc(C(=O)O)c(=O)c2cc(F)c(N3CCN(S(=O)(=O)c4ccc(N)cc4)CC3)cc21 [TCMDC-125809] | 102.29 | 
COc1ccc2nc3cc(Cl)ccc3c(N)c2c1.Cl [TCMDC-125835] |  | Assay tox ratio Pb ODA [1]: 0.61
C[C@@H]1C[C@@H]([C@H](O)CC2CC(=O)NC(=O)C2)C(=O)[C@@H](C)C1 [TCMDC-125838] | 915.12 | 
O=C(NC(=O)c1ccccc1O)c1ccccc1O [TCMDC-125868] | 217.52 | 
COc1ccc2nccc(NC(=O)C3CCC(NCc4cnc(SC)c([N+](=O)[O-])c4)CC3)c2n1.Cl (stereo not drawn) [TCMDC-131238] |  | Assay tox ratio Pb ODA (red: <10-fold selectivity; green: >10-fold): 6.08
Br.CCCc1cc(C)ccc1OCCCON1C(N)=NC(N)=NC1(C)C [TCMDC-131320] |  | Assay tox ratio Pb ODA [1]: 0.000333
C=CCc1cc(OC)ccc1OCCCOc1c(C)nc(N)nc1N.Cl [TCMDC-131358] | 0.11 | 
